Laboratory results as given in PubChem BioAssay AID504467 (National Center for Advancing Translational Sciences (NCATS), 2011).
About 7,700 (2.3%) of roughly 330,000 compounds were called active. The inconclusive results got no clear call from the source; some entries with a clear call stand among them for comparison. Calls follow the shape of the dose curve; as a rule, active = well fitted inhibition curve with a large enough effect; inconclusive = small, poorly fitted or top-dose-only effect, or effect the other way; inactive = flat fitted curve, though single readings scatter. A potency beside an inconclusive call is a rough fit, not a confirmed value.

assay: qHTS screen for small molecules that inhibit ELG1-dependent DNA repair in human embryonic kidney (HEK293T) cells expressing luciferase-tagged ELG1; settings: HEK293T ELG1-luciferase reporter, luminescence, 16 h, DNA damage induced by 5-fluorouridine; activity change, negative = inhibition: at 46.1 µM (top of the series); also: nearly all actives have a fitted effect of over 55% in size
In short: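 HEK293T cells expressing luciferase-tagged ELG1 (2,000/well) received 5-Fluorouridine plus compound or DMSO for 16 hr at 37 °C. Luciferase was read by ONE-Glo luminescence after 30 min at room temperature.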
% is scaled to controls: 0 for no effect and ±100 for the full control effect; potency is read from the fitted curve at half-maximal effect.

Compound	Potency	activity change, negative = inhibition
Cc1c(C(=O)NCC2CCCO2)oc2ccc(S(=O)(=O)N3CCCC3)cc12 (stereo not given)	inconclusive: 20.6 µM [inhibitor, single point]	
C/C(CC(=O)Nc1cc(C)ccn1)=N\NC(=O)c1cccc(C)c1O	inconclusive: 20.6 µM [activator, partial curve]	
CCOCc1c(C(=O)N2CCN(CC(=O)Nc3ccc(F)cc3)CC2)oc2ccccc12		inactive: -15.2%
Cc1csc(NC(=O)CSc2nc(C(C)C)nc3ccccc23)n1		inactive: -6.05%
COC(=O)c1c(NC(=O)c2ccccc2)sc2c1CC(C)(C)OC2	inconclusive: 18.4 µM [inhibitor, single point]	
COCc1cc(=O)n2[nH]c(-c3cccc(Br)c3)cc2n1	inconclusive: 16.4 µM [activator, partial curve]	
COc1ccc(CCNC(=O)c2ccc(N(C)S(=O)(=O)c3ccccc3)cc2)cc1		inactive: -16%
Cn1nc(-c2ccccc2)c(CSc2ccccc2)c1Cl		inactive: 15.3%
CCOc1ccccc1NC(=O)Cn1c(=O)oc2cc(Cl)ccc21		inactive: -14.2%
Cc1ccc(C(=O)N/C(=C\c2ccc(-c3ccccc3[N+](=O)[O-])o2)C(=O)NCCN(C)C)cc1	inconclusive: 35.5 µM [inhibitor, single point]	
CC(C)C(=O)Nc1ccc2oc(-c3cc(F)c(F)cc3Cl)nc2c1	inconclusive: 8.2 µM [activator, partial curve]	
Cc1ccccc1C(=O)N1CCC(C(=O)Nc2ccc(C)c(S(=O)(=O)N3CCCCC3)c2)CC1	inconclusive: 20.6 µM [inhibitor, partial curve, poor fit]	
CCOC(=O)c1ccc(N2CCOCC2)c(NC(=O)c2c(-c3ccccc3)noc2C)c1		inactive: -11.6%
C/C(Cn1cnc([N+](=O)[O-])n1)=N\NC(=O)c1cccc(F)c1	inconclusive: 18.4 µM [activator, single point]	
COc1cc(/C=C/c2nc(-c3ccccc3O)n[nH]2)cc(OC)c1OC	inconclusive: 29.1 µM [inhibitor, single point]	
CCOC(=O)N1CCN(C(=O)CSCc2ccc(Br)cc2)CC1		inactive: -6.25%
CN(C(=O)c1cc(COc2ccc(F)cc2Cl)on1)C1CCCc2ccccc21 (stereo not given)		inactive: -17.1%
Cn1c(=O)c2c(nc(N3CCOCC3)n2Cc2c(F)cccc2Cl)n(C)c1=O		inactive: -10%
COc1ccc2oc(C(=O)OCC(=O)/C(C#N)=C(\C)N)c(C)c2c1	inconclusive: 18.3 µM [activator, partial curve]	
CCc1ccc(OCC(O)CN2CCC(CN3C(=O)c4cccc5cccc(c45)C3=O)CC2)cc1 (stereo not given)	inconclusive: 20.6 µM [inhibitor, single point]	
CC(C)(C)C(=O)Cn1c[n+](N)cn1		inactive: 14.8%
CCc1nc2ccccc2c(C(=O)Oc2cccc3cccnc23)c1C	inconclusive: 29.1 µM [inhibitor, single point]	
Nc1nc(SCC(=O)NCc2ccco2)[nH]c(=O)c1-c1ccccc1		inactive: -2.23%

Compound	Potency	activity change, negative = inhibition
O=C(COC(=O)c1ccco1)NCCc1ccc(Cl)cc1		inactive: 0%
CCn1c(SCc2nc3scc(-c4ccccc4)c3c(=O)[nH]2)nnc1-c1cccs1	inconclusive: 20.6 µM [inhibitor, single point]	
O=C(NCc1cn(-c2ccccc2)nc1-c1ccccc1)c1cc([N+](=O)[O-])cc([N+](=O)[O-])c1		inactive: -13%
Cc1cc(N2CCOCC2)nc2ccc(NC(=O)CCC(=O)N3CCCCC3)cc12	inconclusive: 16.4 µM [activator, partial curve]	
O=C(NCCc1nc(-c2ccc(F)cc2)no1)c1ccc(F)cc1	inconclusive: 20.6 µM [inhibitor, partial curve, poor fit]	
COCCOCCn1c(/C=C/c2ccccc2)nc2ccccc21	inconclusive: 2.91 µM [activator, partial curve]	
O=C1Nc2ccccc2/C1=C/C(=O)c1cccs1		inactive: -3.26%
COc1ccc(OCc2cc(C(=O)N[C@H]3CCCCNC3=O)no2)c(Cl)c1	inconclusive: 16.4 µM [activator, partial curve]	
CC1=NN(c2nc3ccccc3[nH]2)C(=O)/C1=C/N(C)C		inactive: 22.2%
COC(=O)c1ccc(CSc2nc(-c3ccccc3)cs2)o1	inconclusive: 29.1 µM [activator, partial curve, poor fit]	
O=C(COc1ccccc1Cl)Nc1ccc(N2CCCC2)cc1	inconclusive: 23.1 µM [activator, partial curve]	
Cc1cc(C)c(O)c(-c2cc(C(=O)Nc3ccc(S(=O)(=O)N4CCOCC4)cc3)[nH]n2)c1	active: 20.6 µM	
CCOC(=O)C1=C(C)Nc2nnnn2C1c1c[nH]c2ccccc12 (stereo not given)		inactive: -6.6%
COc1ccc(CCn2c(O)cc3nn(-c4nc5ccccc5s4)c(=O)c-3c2C)cc1	inconclusive: 20.6 µM [activator, partial curve, poor fit]	
O=C(c1ccc(Cl)nc1)N1CCN(C/C=C/c2ccccc2)CC1	inconclusive: 29.1 µM [inhibitor, single point]	
Cc1ccc(C2C(C#N)=C(N)Oc3cc(C)oc(=O)c32)o1 (stereo not given)	inconclusive: 32.6 µM [inhibitor, single point]	
COC(=O)Cc1ccc(NC(=S)NN2CCOCC2)cc1	inconclusive: 18.4 µM [activator, partial curve, poor fit]	
C=CCN(CC=C)c1nc2ccccc2nc1C(C#N)C(=O)OCCOC (stereo not given)		inactive: -16.1%
O=C(/C=C/c1ccc(N2CCC(c3ccccc3)=N2)cc1)c1ccccc1	inconclusive: 18.3 µM [activator, single point]	
CCOC(=O)c1sc(NC(=O)Cc2ccc(F)cc2)nc1C	inconclusive: 2.59 µM [activator, partial curve, poor fit]	
Brc1ccc(C2=CC(c3cccs3)n3ncnc3N2)cc1 (stereo not given)	inconclusive: 25.9 µM [inhibitor, single point]	
NS(=O)(=O)c1ccc(CCNC(=O)CN2CCC(Cc3ccccc3)CC2)cc1	inconclusive: 3.66 µM [inhibitor, full curve]	

One compound at a time (already shown).
CCOC(=O)C1=C(C)Nc2nnnn2C1c1c[nH]c2ccccc12 (stereo not given) reads activity change, negative = inhibition: inactive: -6.6%
Cc1cc(C)c(O)c(-c2cc(C(=O)Nc3ccc(S(=O)(=O)N4CCOCC4)cc3)[nH]n2)c1 reads Potency: active: 20.6 µM
Brc1ccc(C2=CC(c3cccs3)n3ncnc3N2)cc1 (stereo not given) reads Potency: inconclusive: 25.9 µM [inhibitor, single point]
